{"source": "the supplement of paper PMC8728848", "assay_in_all_cases": "glycan array binding signal (z-score within array); higher = stronger binding", "conditions_in_all_cases": "glycan notation: IUPAC condensed, linker removed", "key": {"[1]": {"target": "Fuc(a1-3)[Gal3S(b1-4)]GlcNAc6S", "how_it_was_run": "(§1)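 The binding signal is a Z-score computed within each array and averaged over linkers. Arrays of the same protein sequence at different concentrations or buffers were also averaged together. Data originate from 3228 arrays in the Consortium for Functional Glycomics database, kept only where the protein sequence was available.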"}, "[2]": {"target": "Fuc(a1-3)[GalNAc(b1-4)]GlcNAc", "how_it_was_run": "as §1"}, "[3]": {"target": "Fuc(a1-3)[GalNAc(b1-4)]GlcNAc6S", "how_it_was_run": "as §1"}, "Fuc(a1-4)GlcNAc": {"target": "Fuc(a1-4)GlcNAc", "how_it_was_run": "as §1"}, "Fuc(b1-3)GlcNAc": {"target": "Fuc(b1-3)GlcNAc", "how_it_was_run": "as §1"}, "Gal(a1-2)Gal": {"target": "Gal(a1-2)Gal", "how_it_was_run": "as §1"}, "Gal(a1-3)Gal": {"target": "Gal(a1-3)Gal", "how_it_was_run": "as §1"}, "Gal(a1-3)Gal(b1-3)GlcNAc": {"target": "Gal(a1-3)Gal(b1-3)GlcNAc", "how_it_was_run": "as §1"}, "[4]": {"target": "Gal(a1-3)Gal(b1-3)GlcNAc(b1-2)Man", "how_it_was_run": "as §1"}, "[5]": {"target": "Gal(a1-3)Gal(b1-3)GlcNAc(b1-2)Man(a1-3)[Gal(a1-3)Gal(b1-3)GlcNAc(b1-2)Man(a1-6)]Man(b1-4)GlcNAc(b1-4)GlcNAc", "how_it_was_run": "as §1"}, "[6]": {"target": "Gal(a1-3)Gal(b1-3)GlcNAc(b1-3)GalNAc", "how_it_was_run": "as §1"}, "[7]": {"target": "Gal(a1-3)Gal(b1-3)GlcNAc(b1-6)GalNAc", "how_it_was_run": "as §1"}, "[8]": {"target": "Gal(a1-3)Gal(b1-3)[Fuc(a1-4)]GlcNAc(b1-2)Man(a1-3)[Gal(a1-3)Gal(b1-3)[Fuc(a1-4)]GlcNAc(b1-2)Man(a1-6)]Man(b1-4)GlcNAc(b1-4)GlcNAc", "how_it_was_run": "as §1"}, "Gal(a1-3)Gal(b1-4)Glc": {"target": "Gal(a1-3)Gal(b1-4)Glc", "how_it_was_run": "as §1"}, "Gal(a1-3)Gal(b1-4)GlcNAc": {"target": "Gal(a1-3)Gal(b1-4)GlcNAc", "how_it_was_run": "as §1"}, "[9]": {"target": "Gal(a1-3)Gal(b1-4)GlcNAc(b1-2)Man", "how_it_was_run": "as §1"}, "[10]": {"target": "Gal(a1-3)Gal(b1-4)GlcNAc(b1-2)Man(a1-3)[Gal(a1-3)Gal(b1-4)GlcNAc(b1-2)Man(a1-6)]Man(b1-4)GlcNAc(b1-4)GlcNAc", "how_it_was_run": "as §1"}, "[11]": {"target": "Gal(a1-3)Gal(b1-4)GlcNAc(b1-3)GalNAc", "how_it_was_run": "as §1"}, "[12]": {"target": "Gal(a1-3)Gal(b1-4)GlcNAc(b1-6)GalNAc", "how_it_was_run": "as §1"}, "[13]": {"target": "Gal(a1-3)Gal(b1-4)[Fuc(a1-3)]GlcNAc", "how_it_was_run": "as §1"}, "[14]": {"target": "Gal(a1-3)Gal(b1-4)[Fuc(a1-3)]GlcNAc(b1-2)Man(a1-3)[Gal(a1-3)Gal(b1-4)[Fuc(a1-3)]GlcNAc(b1-2)Man(a1-6)]Man(b1-4)GlcNAc(b1-4)GlcNAc", "how_it_was_run": "as §1"}, "Gal(a1-3)GalNAc": {"target": "Gal(a1-3)GalNAc", "how_it_was_run": "as §1"}, "[15]": {"target": "Gal(a1-3)[Gal(a1-4)]Gal(b1-4)GlcNAc", "how_it_was_run": "as §1"}, "[16]": {"target": "Gal(a1-4)Gal(b1-3)GlcNAc(b1-2)Man(a1-3)[Gal(a1-4)Gal(b1-3)GlcNAc(b1-2)Man(a1-6)]Man(b1-4)GlcNAc(b1-4)GlcNAc", "how_it_was_run": "as §1"}, "Gal(a1-4)Gal(b1-4)Glc": {"target": "Gal(a1-4)Gal(b1-4)Glc", "how_it_was_run": "as §1"}, "Gal(a1-4)Gal(b1-4)GlcNAc": {"target": "Gal(a1-4)Gal(b1-4)GlcNAc", "how_it_was_run": "as §1"}, "[17]": {"target": "Gal(a1-4)Gal(b1-4)GlcNAc(b1-2)Man(a1-3)[Gal(a1-4)Gal(b1-4)GlcNAc(b1-2)Man(a1-6)]Man(b1-4)GlcNAc(b1-4)GlcNAc", "how_it_was_run": "as §1"}, "[18]": {"target": "Gal(a1-4)Gal(b1-4)GlcNAc(b1-3)Gal(b1-4)Glc", "how_it_was_run": "as §1"}, "Gal(a1-4)GlcNAc": {"target": "Gal(a1-4)GlcNAc", "how_it_was_run": "as §1"}, "Gal(a1-6)Glc": {"target": "Gal(a1-6)Glc", "how_it_was_run": "as §1"}, "Gal(b1-2)Gal": {"target": "Gal(b1-2)Gal", "how_it_was_run": "as §1"}, "Gal(b1-3)Gal": {"target": "Gal(b1-3)Gal", "how_it_was_run": "as §1"}, "Gal(b1-3)Gal(b1-4)GlcNAc": {"target": "Gal(b1-3)Gal(b1-4)GlcNAc", "how_it_was_run": "as §1"}, "Gal(b1-3)GalNAc": {"target": "Gal(b1-3)GalNAc", "how_it_was_run": "as §1"}, "[19]": {"target": "Gal(b1-3)GalNAc(a1-3)[Fuc(a1-2)]Gal(b1-4)Glc", "how_it_was_run": "as §1"}, "[20]": {"target": "Gal(b1-3)GalNAc(a1-3)[Fuc(a1-2)]Gal(b1-4)GlcNAc", "how_it_was_run": "as §1"}, "Gal(b1-3)GalNAc(b1-3)Gal": {"target": "Gal(b1-3)GalNAc(b1-3)Gal", "how_it_was_run": "as §1"}, "[21]": {"target": "Gal(b1-3)GalNAc(b1-3)Gal(a1-4)Gal(b1-4)Glc", "how_it_was_run": "as §1"}, "[22]": {"target": "Gal(b1-3)GalNAc(b1-4)Gal(b1-4)Glc", "how_it_was_run": "as §1"}, "[23]": {"target": "Gal(b1-3)GalNAc(b1-4)[Neu5Ac(a2-3)]Gal(b1-4)Glc", "how_it_was_run": "as §1"}, "Gal(b1-3)GlcNAc": {"target": "Gal(b1-3)GlcNAc", "how_it_was_run": "as §1"}, "[24]": {"target": "Gal(b1-3)GlcNAc(a1-3)Gal(b1-4)GlcNAc", "how_it_was_run": "as §1"}, "[25]": {"target": "Gal(b1-3)GlcNAc(a1-6)Gal(b1-4)GlcNAc", "how_it_was_run": "as §1"}, "Gal(b1-3)GlcNAc(b1-2)Man": {"target": "Gal(b1-3)GlcNAc(b1-2)Man", "how_it_was_run": "as §1"}, "[26]": {"target": "Gal(b1-3)GlcNAc(b1-2)Man(a1-3)[Gal(b1-3)GlcNAc(b1-2)Man(a1-6)]Man(b1-4)GlcNAc(b1-4)GlcNAc", "how_it_was_run": "as §1"}}, "note": "Some of the results follow.", "data": [{"binder": "Aap lectin (Staphylococcus epidermidis) (protein) VNLNYSSPFMSLLSMPADSSSNNTKNTIDIPPTTVKGRDNYDFYGRVDIESNPTDLNATNLTRYNYGQPPGTTTAGAVQFKNQVSFDKDFDFNIRVANNRQSNTTGADGWGFMFSKKDGDDFLKNGGILREKGTPSAAGFRIDTGYYNNDPLDKIQKQAGQGYRGYGTFVKNDSQGNTSKVGSGTPSTDFLNYADNTTNDLDGKFHGQKLNNVNLKYNASNQTFTATYAGKTWTATLSELGLSPTDSYNFLVTSS", "values": [{"measurement": "glycan array binding signal (z-score)", "setting": "[1]", "value": -0.816}, {"measurement": "glycan array binding signal (z-score)", "setting": "[2]", "value": -0.063}, {"measurement": "glycan array binding signal (z-score)", "setting": "[3]", "value": -0.715}, {"measurement": "glycan array binding signal (z-score)", "setting": "Fuc(a1-4)GlcNAc", "value": -0.27}, {"measurement": "glycan array binding signal (z-score)", "setting": "Fuc(b1-3)GlcNAc", "value": 0.487}, {"measurement": "glycan array binding signal (z-score)", "setting": "Gal(a1-2)Gal", "value": -0.818}, {"measurement": "glycan array binding signal (z-score)", "setting": "Gal(a1-3)Gal", "value": 0.083}, {"measurement": "glycan array binding signal (z-score)", "setting": "Gal(a1-3)Gal(b1-3)GlcNAc", "value": 1.93}, {"measurement": "glycan array binding signal (z-score)", "setting": "[4]", "value": 2.18}, {"measurement": "glycan array binding signal (z-score)", "setting": "[5]", "value": 2.88}, {"measurement": "glycan array binding signal (z-score)", "setting": "[6]", "value": 1.24}, {"measurement": "glycan array binding signal (z-score)", "setting": "[7]", "value": 1.11}, {"measurement": "glycan array binding signal (z-score)", "setting": "[8]", "value": 2.41}, {"measurement": "glycan array binding signal (z-score)", "setting": "Gal(a1-3)Gal(b1-4)Glc", "value": -0.731}, {"measurement": "glycan array binding signal (z-score)", "setting": "Gal(a1-3)Gal(b1-4)GlcNAc", "value": -0.335}, {"measurement": "glycan array binding signal (z-score)", "setting": "[9]", "value": -0.611}, {"measurement": "glycan array binding signal (z-score)", "setting": "[10]", "value": 1.09}, {"measurement": "glycan array binding signal (z-score)", "setting": "[11]", "value": -0.631}, {"measurement": "glycan array binding signal (z-score)", "setting": "[12]", "value": -0.434}, {"measurement": "glycan array binding signal (z-score)", "setting": "[13]", "value": -0.882}, {"measurement": "glycan array binding signal (z-score)", "setting": "[14]", "value": -0.777}, {"measurement": "glycan array binding signal (z-score)", "setting": "Gal(a1-3)GalNAc", "value": -0.231}, {"measurement": "glycan array binding signal (z-score)", "setting": "[15]", "value": -0.627}, {"measurement": "glycan array binding signal (z-score)", "setting": "[16]", "value": 1.06}, {"measurement": "glycan array binding signal (z-score)", "setting": "Gal(a1-4)Gal(b1-4)Glc", "value": -0.537}, {"measurement": "glycan array binding signal (z-score)", "setting": "Gal(a1-4)Gal(b1-4)GlcNAc", "value": -0.252}, {"measurement": "glycan array binding signal (z-score)", "setting": "[17]", "value": -0.793}, {"measurement": "glycan array binding signal (z-score)", "setting": "[18]", "value": 1.77}, {"measurement": "glycan array binding signal (z-score)", "setting": "Gal(a1-4)GlcNAc", "value": -0.773}, {"measurement": "glycan array binding signal (z-score)", "setting": "Gal(a1-6)Glc", "value": -0.736}, {"measurement": "glycan array binding signal (z-score)", "setting": "Gal(b1-2)Gal", "value": -0.782}, {"measurement": "glycan array binding signal (z-score)", "setting": "Gal(b1-3)Gal", "value": -0.836}, {"measurement": "glycan array binding signal (z-score)", "setting": "Gal(b1-3)Gal(b1-4)GlcNAc", "value": -0.133}, {"measurement": "glycan array binding signal (z-score)", "setting": "Gal(b1-3)GalNAc", "value": -0.294}, {"measurement": "glycan array binding signal (z-score)", "setting": "[19]", "value": -0.917}, {"measurement": "glycan array binding signal (z-score)", "setting": "[20]", "value": -0.68}, {"measurement": "glycan array binding signal (z-score)", "setting": "Gal(b1-3)GalNAc(b1-3)Gal", "value": 0.027}, {"measurement": "glycan array binding signal (z-score)", "setting": "[21]", "value": -0.351}, {"measurement": "glycan array binding signal (z-score)", "setting": "[22]", "value": 0.103}, {"measurement": "glycan array binding signal (z-score)", "setting": "[23]", "value": -0.798}, {"measurement": "glycan array binding signal (z-score)", "setting": "Gal(b1-3)GlcNAc", "value": -0.823}, {"measurement": "glycan array binding signal (z-score)", "setting": "[24]", "value": 1.17}, {"measurement": "glycan array binding signal (z-score)", "setting": "[25]", "value": 0.14}, {"measurement": "glycan array binding signal (z-score)", "setting": "Gal(b1-3)GlcNAc(b1-2)Man", "value": 3.17}, {"measurement": "glycan array binding signal (z-score)", "setting": "[26]", "value": 0.05}]}]}
